The values that follow come from publication doi:10.1101/2022.02.05.479252.

Amino acid sequences for entries named in this document (tags omitted). Residues count along the entry.
UniProt P22290, residues 211-525: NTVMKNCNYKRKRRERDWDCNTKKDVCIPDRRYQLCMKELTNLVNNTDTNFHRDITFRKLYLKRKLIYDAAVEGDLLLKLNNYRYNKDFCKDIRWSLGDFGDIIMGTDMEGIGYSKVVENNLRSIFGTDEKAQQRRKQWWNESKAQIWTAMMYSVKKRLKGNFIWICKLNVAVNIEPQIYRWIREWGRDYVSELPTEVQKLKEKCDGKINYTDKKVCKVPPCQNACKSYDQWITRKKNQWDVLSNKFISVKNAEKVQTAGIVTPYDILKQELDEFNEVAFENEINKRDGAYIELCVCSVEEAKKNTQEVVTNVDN

No constants are given. Whether binding was seen depends on the method and setting. Some results given as binding are weak or reduced against the parent protein; the word gives no strength.

For this assay, the target named is T1, Duffy antigen/Receptor for chemokines (DARC) (UniProt Q16570).
T1 sequence: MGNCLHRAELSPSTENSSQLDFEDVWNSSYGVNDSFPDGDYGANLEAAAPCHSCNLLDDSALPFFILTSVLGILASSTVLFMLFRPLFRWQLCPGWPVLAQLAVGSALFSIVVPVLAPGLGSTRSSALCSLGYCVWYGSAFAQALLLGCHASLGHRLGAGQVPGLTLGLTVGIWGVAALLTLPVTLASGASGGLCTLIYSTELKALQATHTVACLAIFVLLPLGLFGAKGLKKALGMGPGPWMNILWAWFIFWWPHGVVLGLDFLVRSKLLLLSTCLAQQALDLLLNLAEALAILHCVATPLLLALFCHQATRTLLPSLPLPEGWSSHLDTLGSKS
Nature of the assay: flow cytometry on cells.

On to “biotinylated BirA-tagged Sal-1 Duffy binding protein region II (DBP-II) (from UniProt P22290 211-525) (domain or fragment)”, for which the binding entry is recorded as “binds”.
